Laboratory results reported in publication PMC10698194.
These are yes or no findings as the source states them, for the method shown. Binding seen in cells or lysates may run through a third protein. Some entries that bind do so weakly or less than the wild type.

Sequences of proteins named here, by UniProt entry; tags and fusion partners are left off.
UniProt P33534: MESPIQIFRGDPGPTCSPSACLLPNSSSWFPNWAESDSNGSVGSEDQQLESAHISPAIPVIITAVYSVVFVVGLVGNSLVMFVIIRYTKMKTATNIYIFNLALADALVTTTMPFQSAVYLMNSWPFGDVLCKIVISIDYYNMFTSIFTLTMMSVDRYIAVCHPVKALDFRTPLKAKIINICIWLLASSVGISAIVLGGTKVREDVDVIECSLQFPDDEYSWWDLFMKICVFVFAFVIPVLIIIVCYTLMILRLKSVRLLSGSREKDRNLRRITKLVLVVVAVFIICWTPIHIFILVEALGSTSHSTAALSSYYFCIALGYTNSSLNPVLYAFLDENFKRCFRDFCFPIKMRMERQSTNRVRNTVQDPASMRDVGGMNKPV
UniProt P49407: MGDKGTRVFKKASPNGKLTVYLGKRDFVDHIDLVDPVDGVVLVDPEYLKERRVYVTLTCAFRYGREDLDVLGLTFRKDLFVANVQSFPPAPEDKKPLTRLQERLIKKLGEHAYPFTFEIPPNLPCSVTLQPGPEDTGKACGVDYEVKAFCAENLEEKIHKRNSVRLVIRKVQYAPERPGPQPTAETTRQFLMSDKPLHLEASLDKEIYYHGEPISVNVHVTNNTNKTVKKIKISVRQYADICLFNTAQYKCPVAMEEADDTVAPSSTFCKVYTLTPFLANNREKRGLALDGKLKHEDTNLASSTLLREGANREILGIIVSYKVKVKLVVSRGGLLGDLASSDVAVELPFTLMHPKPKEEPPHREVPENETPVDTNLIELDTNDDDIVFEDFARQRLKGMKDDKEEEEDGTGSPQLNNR
UniProt P32121: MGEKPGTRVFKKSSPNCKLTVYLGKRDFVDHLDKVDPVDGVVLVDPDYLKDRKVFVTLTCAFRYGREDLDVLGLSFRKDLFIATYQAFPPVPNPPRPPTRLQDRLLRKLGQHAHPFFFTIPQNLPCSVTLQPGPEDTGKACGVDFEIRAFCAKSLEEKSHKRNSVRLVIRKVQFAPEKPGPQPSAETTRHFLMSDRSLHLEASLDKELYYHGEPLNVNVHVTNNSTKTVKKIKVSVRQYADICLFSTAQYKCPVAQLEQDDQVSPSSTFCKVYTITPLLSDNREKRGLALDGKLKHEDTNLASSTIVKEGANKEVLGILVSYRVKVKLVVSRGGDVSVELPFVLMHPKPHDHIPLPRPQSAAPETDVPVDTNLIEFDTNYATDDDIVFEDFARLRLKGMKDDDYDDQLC

Biological target: mouse KOR-EGFP (mouse) (UniProt P33534)
Experiment: FRET or BRET; HEK293 cells transiently co-expressing human β-arrestin-1/2-nano luciferase and mouse KOR-EGFP (1:10); agonist (DNCP-β-NalA(1), β-NalA, dyn A 1-13, U69,593) 5 min at 37 °C; furimazine

binding | Substance
binds | human β-arrestin-1-nano luciferase (from UniProt P49407 1-418)
binds | human β-arrestin-2-nano luciferase (from UniProt P32121 1-409)
